In patent US20230357179A1, “RAF KINASE INHIBITORS AND METHODS OF USE THEREOF” (Deciphera Pharmaceuticals, LLC, priority 2021, published 2023):
The structures given here were assigned with low confidence; some may be wrong.

Protein sequences, listed by entry. Tags and fused reporters are not part of them. Lines headed by an entry give the natural chain unless they say otherwise; changes in a name come on top. Chains listed by the source or under a name are the forms on record and can include a tag or linker. Residues count along the entry.
UniProt P10398, 273-606 with tags or gaps Y301D/Y302D: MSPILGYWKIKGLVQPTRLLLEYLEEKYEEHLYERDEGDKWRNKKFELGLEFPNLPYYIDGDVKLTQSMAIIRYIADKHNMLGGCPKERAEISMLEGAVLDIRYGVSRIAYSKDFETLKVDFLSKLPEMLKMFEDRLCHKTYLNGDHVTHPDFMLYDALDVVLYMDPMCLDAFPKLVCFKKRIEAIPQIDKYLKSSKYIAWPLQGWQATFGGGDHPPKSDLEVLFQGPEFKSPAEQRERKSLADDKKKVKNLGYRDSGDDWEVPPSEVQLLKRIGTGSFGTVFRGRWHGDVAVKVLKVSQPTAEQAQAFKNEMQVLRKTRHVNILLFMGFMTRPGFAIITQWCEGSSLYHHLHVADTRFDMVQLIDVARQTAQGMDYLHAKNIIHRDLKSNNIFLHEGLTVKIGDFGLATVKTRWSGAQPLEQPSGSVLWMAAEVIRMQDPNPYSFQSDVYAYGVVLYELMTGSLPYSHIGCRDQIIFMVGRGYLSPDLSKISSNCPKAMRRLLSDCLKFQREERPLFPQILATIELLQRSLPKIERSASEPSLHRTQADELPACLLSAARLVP
UniProt P15056, 416-766: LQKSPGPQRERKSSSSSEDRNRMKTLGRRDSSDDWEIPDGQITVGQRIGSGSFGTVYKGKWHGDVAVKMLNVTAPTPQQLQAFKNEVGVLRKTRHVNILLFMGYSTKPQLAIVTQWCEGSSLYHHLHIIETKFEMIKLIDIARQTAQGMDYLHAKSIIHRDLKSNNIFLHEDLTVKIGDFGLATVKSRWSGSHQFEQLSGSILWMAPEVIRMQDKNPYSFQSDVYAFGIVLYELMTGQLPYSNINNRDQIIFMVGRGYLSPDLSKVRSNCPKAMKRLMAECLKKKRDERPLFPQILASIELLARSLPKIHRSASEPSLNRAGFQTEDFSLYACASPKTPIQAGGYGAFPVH
UniProt P15056, 416-766 V600E: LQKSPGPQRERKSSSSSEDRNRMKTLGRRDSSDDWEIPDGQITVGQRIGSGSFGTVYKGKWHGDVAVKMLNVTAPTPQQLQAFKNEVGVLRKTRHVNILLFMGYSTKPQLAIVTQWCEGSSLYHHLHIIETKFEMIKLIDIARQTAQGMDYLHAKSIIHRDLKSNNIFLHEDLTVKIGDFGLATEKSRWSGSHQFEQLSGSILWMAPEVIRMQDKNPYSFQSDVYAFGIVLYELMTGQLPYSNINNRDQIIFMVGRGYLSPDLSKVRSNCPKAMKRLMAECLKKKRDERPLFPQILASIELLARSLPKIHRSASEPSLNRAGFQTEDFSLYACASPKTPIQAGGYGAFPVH
UniProt P04049, 307-648 Y340D/Y341D: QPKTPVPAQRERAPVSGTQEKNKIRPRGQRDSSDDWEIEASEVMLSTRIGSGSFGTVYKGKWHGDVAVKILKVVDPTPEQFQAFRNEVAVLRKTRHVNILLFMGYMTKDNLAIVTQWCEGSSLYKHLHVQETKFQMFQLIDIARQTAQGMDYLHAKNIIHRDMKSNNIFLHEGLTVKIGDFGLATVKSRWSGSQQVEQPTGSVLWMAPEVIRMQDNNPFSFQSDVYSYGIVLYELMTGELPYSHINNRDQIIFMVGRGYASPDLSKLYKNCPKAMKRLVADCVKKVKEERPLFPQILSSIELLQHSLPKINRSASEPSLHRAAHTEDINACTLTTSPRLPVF

Legend:
A-Raf kinase = A-Raf kinase (Homo sapiens, UniProt P10398, Y301D/Y302D); experiment: Biochemical assay for A-Raf.1 (coupled pyruvate kinase/lactate dehydrogenase); conditions: read-out: ARAF.1 IC50
Description: Biochemical assay for A-Raf.1
(§1) Activity of A-Raf kinase (SEQ. ID NO. 1) was determined spectroscopically using a coupled pyruvate kinase/lactate dehydrogenase assay that continuously monitors the ATP hydrolysis-dependent oxidation of NADH (e.g., Schindler et al., Science, 2000, 289, 1938-1942). Assays were conducted in 384-well plates (100 μL final volume) using 5.55 nM A-Raf (Sigma), 1.5 units pyruvate kinase, 2.1 units lactate dehydrogenase, 1 mM phosphoenol pyruvate, 0.28 mM NADH, 30.1 nM MEK (SignalChem), and 1 mM ATP in assay buffer (100 mM Tris, pH 7.5, 15 mM MgCl2, 0.5 mM DTT, 0.1% octyl-glucoside, 0.002% (w/v) BSA, and 0.002% Triton X-100). Inhibition of A-Raf was measured by adding serial diluted test compound (final assay concentration of 1% DMSO). A decrease in absorption at 340 nm was monitored continuously for 6 h at 30° C. on a multi-mode microplate reader (BioTek). The reaction rate was calculated using the 4 to 5 h time frame. The reaction rate at each concentration of compound was converted to percent inhibition using controls (i.e., reaction with no test compound and reaction with a known inhibitor) and IC50 values were calculated by fitting a four-parameter sigmoidal curve to the data using Prism (GraphPad software).

A375 cells = experiment: A375 cell proliferation assay (1), resazurin, 96-well; conditions: read-out: A375 (1) IC50, inhibition of cell proliferation
Description: A375 Cell Proliferation Assay (1)
A375 cells (catalog (#CRL-1619) are obtained from the American Type Culture Collect (ATTC, Manassas, VA). Briefly, cells were grown in DMEM High Glucose supplemented with 10% characterized fetal bovine serum (Invitrogen, Carlsbad, CA) and 1% Penicillin/Streptomycin/L-Glutamine at 37° C., 5% CO2, and 95% humidity. Cells are expanded until reaching 70-95% confluency at which point they are sub-cultured or harvested for assay use. A serial dilution of test compound is dispensed into a 96-well black clear bottom plate in triplicate. Two thousand five hundred cells are added per well in 200 μL complete growth medium in the 96-well plate. Plates are incubated for 67-72 hours at 37° C., 5% CO2, and 95% humidity. At the end of the incubation, 40 μL of a 440 μM solution of resazurin (Sigma, St. Louis, MO) in PBS is added to each well of the plate and plates are incubated for an additional 5-6 hours at 37° C., 5% CO2, and 95% humidity. Plates are read on a Synergy2 or equivalent reader (Biotek, Winooski VT) using an excitation of 540 nm and an emission of 600 nm. Data is analyzed using Prism software (GraphPad, San Diego, CA) to calculate IC50 values.

Miapaca-2 cells = experiment: MiaPaca-2 cell proliferation assay (1), resazurin, 96-well; conditions: read-out: MiaPaca-2 (1) IC50, inhibition of cell proliferation
Description: MiaPaca-2 Cell Proliferation Assay (1)
Miapaca-2 cells (catalog #CRL-1420) are obtained from the American Type Culture Collect (ATTC, Manassas, VA). Briefly, cells were grown in DMEM supplemented with 10% characterized fetal bovine serum (Invitrogen, Carlsbad, CA), 2.5% New Zealand sourced horse serum and 1% Penicillin/Streptomycin/L-Glutamine at 37° C., 5% CO2, and 95% humidity. Cells are expanded until reaching 70-95% confluency at which point they are subcultured or harvested for assay use. A serial dilution of test compound is dispensed into a 96-well black clear bottom plate in triplicate. Three thousand cells are added per well in 200 μL complete growth medium in the 96-well plate. Plates are incubated for 67-72 hours at 37° C., 5% CO2, and 95% humidity. At the end of the incubation, 40 μL of a 440 μM solution of resazurin (Sigma, St. Louis, MO) in PBS is added to each well of the plate and plates are incubated for an additional 5-6 hours at 37° C., 5% CO2, and 95% humidity. Plates are read on a Synergy2 or equivalent reader (Biotek, Winooski VT) using an excitation of 540 nm and an emission of 600 nm. Data is analyzed using Prism software (GraphPad, San Diego, CA) to calculate IC50 values.

B-Raf kinase = B-Raf kinase (Homo sapiens, UniProt P15056); experiment: Biochemical assay for B-Raf.1 (coupled pyruvate kinase/lactate dehydrogenase); conditions: read-out: BRAF.1 IC50
Description: Biochemical Assay for B-Raf.1
as §1, with “B-Raf” for “A-Raf”, “NO: 2)” for “NO. 1)”, “0.13” for “5.55”

C-Raf kinase = C-Raf kinase (Homo sapiens, UniProt P04049, Y340D/Y341D); experiment: Biochemical assay for C-Raf.1 (coupled pyruvate kinase/lactate dehydrogenase); conditions: read-out: CRAF.1 IC50
Description: Biochemical Assay for C-Raf.1
as §1, with “C-Raf” for “A-Raf”, “NO: 3)” for “NO. 1)”, “0.43” for “5.55”

B-Raf (V600E) kinase = B-Raf (V600E) kinase (Homo sapiens, UniProt P15056, V600E); experiment: Biochemical assay for B-Raf (V600E).1 (coupled pyruvate kinase/lactate dehydrogenase); conditions: read-out: BRAF V600E.1 IC50
Description: Biochemical Assay for B-Raf (V600E).1
Activity of B-Raf (V600E) (SEQ. ID NO: 4) kinase was determined spectroscopically using a coupled pyruvate kinase/lactate dehydrogenase assay that continuously monitors the ATP hydrolysis-dependent oxidation of NADH (e.g., Schindler et al., Science, 2000, 289, 1938-1942). Assays were conducted in 384-well plates (100 μL final volume) using 0.03 nM B-Raf (SignalChem), 1.5 units pyruvate kinase, 2.1 units lactate dehydrogenase, 1 mM phosphoenol pyruvate, 0.28 mM NADH, 30.1 nM MEK (SignalChem), and 1 mM ATP in assay buffer (100 mM Tris, pH 7.5, 15 mM MgCl2, 0.5 mM DTT, 0.1% octyl-glucoside, 0.002% (w/v) BSA, and 0.002% Triton X-100). Inhibition of B-Raf (V600E) was measured by adding serial diluted test compound (final assay concentration of 1% DMSO). A decrease in absorption at 340 nm was monitored continuously for 6 h at 30° C. on a multi-mode microplate reader (BioTek). The reaction rate was calculated using the 3 to 4 h time frame. The reaction rate at each concentration of compound was converted to percent inhibition using controls (i.e., reaction with no test compound and reaction with a known inhibitor) and IC50 values were calculated by fitting a four-parameter sigmoidal curve to the data using Prism (GraphPad software).

IC50 (A-Raf kinase): > 1000 nM
IC50 (A375 cells): 100 to 500 nM
IC50 (Miapaca-2 cells): 1000 to 10000 nM
IC50 (B-Raf kinase): < 100 nM
IC50 (C-Raf kinase): < 100 nM
IC50 (B-Raf (V600E) kinase): < 100 nM
Structure (SMILES): Cc1cc(F)c(NC(=O)NCCC(C)(C)C)cc1-c1cc(OCCO)nc(C2=CCOCC2)c1 [Example 7]
